In article PMC7156461 one finds binding data, which are given here for 1 substance.

Results are given in words; binding and its absence hold for the method and conditions named. Binding seen in cells or lysates may run through a third protein. Binding can be weak; no strength is given. Tags and fused reporters may be left off the sequences shown.

The experiment concerns the target T1, Myc-HopQ N90, containing only an N-terminal 90 amino-acid region (Pseudomonas syringae pv. tomato DC3000) (UniProt Q888Y7).
T1 sequence: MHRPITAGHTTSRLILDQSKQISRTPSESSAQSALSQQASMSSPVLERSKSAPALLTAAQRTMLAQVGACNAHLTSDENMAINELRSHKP
Nature of the experiment: co-IP; whole-cell lysates of transfected B16F10 cells, IP with anti-Myc antibody on magnetic beads, immunoblot of the endogenous partner (anti-14-3-3 or anti-p62). For orientation: In western blotting, separated proteins are transferred to a membrane and probed.

On to “14-3-3 protein (mouse (endogenous in B16F10))”, for which the binding result is “binds”.
